Experimental data reported in paper PMC6220877 (Chembiochem, 2018).
One purity is given for all peptides; the source may state it once. [ ]: non-standard residue; d: D form. 2Thi = N[C@@H](Cc1cccs1)C(=O)O; Cha = N[C@@H](CC1CCCCC1)C(=O)O; Tle = CC(C)(C)[C@H](N)C(=O)O

Legend:
Settings in all cases: whole synthesis, analytical reversed-phase HPLC (system A) and LC-MS
[1] = general procedure: Fmoc solid-phase peptide synthesis; 2-chlorotrityl chloride resin; Fmoc-Leu-Wang resin; HMBA resin
[2] = general procedure: Fmoc solid-phase peptide synthesis; Fmoc-Leu-Wang resin
[3] = general procedure: Fmoc solid-phase peptide synthesis; HMBA resin
[4] = general procedure: Fmoc solid-phase peptide synthesis; 2-Chlorotrityl chloride resin

Substance	final HPLC purity [4] [%]	final LC-MS purity [4] [%]	other results
Ac-Asp-Pip-Glu-Thr-Gly-Glu-Leu-OH			final HPLC purity [1]: >95%; final LC-MS purity [1]: >95%
Ac-Asp-Pro-Glu-Bap-Gly-Glu-Leu-OH			final HPLC purity [2]: >95%; final LC-MS purity [2]: >95%
Ac-Asp-Pro-Glu-Thr-Gly-Glu-Leu-NH-Bn			final HPLC purity [3]: >95%; final LC-MS purity [3]: >95%
Ac-Asp-Pro-Glu-Thr-Gly-Glu-Leu-TET	>95	>95	
Ac-Asp-Pro-Glu-hPhe-Gly-Glu-Leu-OH			final HPLC purity [2]: >95%; final LC-MS purity [2]: >95%
Ac-Asp-Thp-Glu-Thr-Gly-Glu-Leu-OH	>95	>95	
Ac-DPENGEL-OH	>95	>95	
Ac-DPETGE[2Thi]-OH (SMILES CC(=O)N[C@@H](CC(=O)O)C(=O)N1CCC[C@H]1C(=O)N[C@@H](CCC(=O)O)C(=O)N[C@H](C(=O)NCC(=O)N[C@@H](CCC(=O)O)C(=O)N[C@@H](Cc1cccs1)C(=O)O)[C@@H](C)O)	>95	>95	
Ac-DPETGE[Cha]-OH (SMILES CC(=O)N[C@@H](CC(=O)O)C(=O)N1CCC[C@H]1C(=O)N[C@@H](CCC(=O)O)C(=O)N[C@H](C(=O)NCC(=O)N[C@@H](CCC(=O)O)C(=O)N[C@@H](CC1CCCCC1)C(=O)O)[C@@H](C)O)	>95	>95	
Ac-DPETGE[Tle]-OH (SMILES CC(=O)N[C@@H](CC(=O)O)C(=O)N1CCC[C@H]1C(=O)N[C@@H](CCC(=O)O)C(=O)N[C@H](C(=O)NCC(=O)N[C@@H](CCC(=O)O)C(=O)N[C@H](C(=O)O)C(C)(C)C)[C@@H](C)O)	>95	>95	
Ac‐Asp‐Pro‐Glu‐Thr‐Gly‐Glu‐Leu‐NH‐isopentyl			final HPLC purity [3]: >95%; final LC-MS purity [3]: >95%
